Reference: US9545418B2, “ON01910.Na enhances chemotherapeutic agent activity in drug-resistant tumors” (THE JOHNS HOPKINS UNIVERSITY, priority 2008, dated 2017)
At least one compound was matched to its structure with a doubt left.

What was measured:
Assay type in all cases: in vivo, mice
Conditions in all cases: Gemcitabine 100 mg/kg 2 times/week for 4 weeks, ON-01910.Na 250 mg/kg/day for 4 weeks
[1] = test system: Tumor 41 (pancreatic tumor); test: Direct pancreatic cancer derived xenograft, Tumor 41
From the text: (§1) Resected pancreatic adenocarcinomas are routinely implanted in nude mice at the Johns Hopkins Medical Institutions as a method to obtain enriched populations of neoplastic cells under an IRB-approved protocol from residual pancreatic cancer tumors. Briefly, tumor specimens from Whipple resection specimens were divided into 2-3 mm^3 pieces in antibiotic-containing RPMI media. Pieces of non-necrotic tissue were selected and immersed in Matrigel. Under anesthesia with isofluorane, tumors were implanted into five-to-six week-old female athymic (nu/nu) mice purchased from Harlan (Harlan Laboratories, Washington, D.C.). […] Tumor size was determined using calipers every four days for the course of the experiment. Relative tumor growth inhibition (TGI) was calculated as TGI=(Ti−T0/Ci−C0), where Ti and Ci represent tumor size in the treated and control group at 28-day, respectively; […] Experiments were terminated on day 28. […] Pancreatic tumors were implanted in mice as detailed above. Mice were treated with gemcitabine alone, ON-01910-Na alone, or a combination thereof as indicated. Tumor size was measured at four day intervals.

[2] = test system: Tumor JH03 (pancreatic tumor); test: Direct pancreatic cancer derived xenograft, Tumor JH03
From the text: as §1

[3] = test system: Tumor 28 (pancreatic tumor); test: Direct pancreatic cancer derived xenograft, Tumor 28
From the text: as §1

COc1cc(OC)c(/C=C/S(=O)(=O)Cc2ccc(OC)c(NCC(=O)O)c2)c(OC)c1 [ON-01910-Na]
susceptibility of tumor to treatment (tumor growth) [1]: susceptible
susceptibility of tumor to treatment (tumor growth) [2]: not
susceptibility of tumor to treatment (tumor growth) [3]: sensitive
